# Source: PMC7790756
# The chains behind the UniProt entries cited, without tags or fusion partners.
# UniProt Q12923: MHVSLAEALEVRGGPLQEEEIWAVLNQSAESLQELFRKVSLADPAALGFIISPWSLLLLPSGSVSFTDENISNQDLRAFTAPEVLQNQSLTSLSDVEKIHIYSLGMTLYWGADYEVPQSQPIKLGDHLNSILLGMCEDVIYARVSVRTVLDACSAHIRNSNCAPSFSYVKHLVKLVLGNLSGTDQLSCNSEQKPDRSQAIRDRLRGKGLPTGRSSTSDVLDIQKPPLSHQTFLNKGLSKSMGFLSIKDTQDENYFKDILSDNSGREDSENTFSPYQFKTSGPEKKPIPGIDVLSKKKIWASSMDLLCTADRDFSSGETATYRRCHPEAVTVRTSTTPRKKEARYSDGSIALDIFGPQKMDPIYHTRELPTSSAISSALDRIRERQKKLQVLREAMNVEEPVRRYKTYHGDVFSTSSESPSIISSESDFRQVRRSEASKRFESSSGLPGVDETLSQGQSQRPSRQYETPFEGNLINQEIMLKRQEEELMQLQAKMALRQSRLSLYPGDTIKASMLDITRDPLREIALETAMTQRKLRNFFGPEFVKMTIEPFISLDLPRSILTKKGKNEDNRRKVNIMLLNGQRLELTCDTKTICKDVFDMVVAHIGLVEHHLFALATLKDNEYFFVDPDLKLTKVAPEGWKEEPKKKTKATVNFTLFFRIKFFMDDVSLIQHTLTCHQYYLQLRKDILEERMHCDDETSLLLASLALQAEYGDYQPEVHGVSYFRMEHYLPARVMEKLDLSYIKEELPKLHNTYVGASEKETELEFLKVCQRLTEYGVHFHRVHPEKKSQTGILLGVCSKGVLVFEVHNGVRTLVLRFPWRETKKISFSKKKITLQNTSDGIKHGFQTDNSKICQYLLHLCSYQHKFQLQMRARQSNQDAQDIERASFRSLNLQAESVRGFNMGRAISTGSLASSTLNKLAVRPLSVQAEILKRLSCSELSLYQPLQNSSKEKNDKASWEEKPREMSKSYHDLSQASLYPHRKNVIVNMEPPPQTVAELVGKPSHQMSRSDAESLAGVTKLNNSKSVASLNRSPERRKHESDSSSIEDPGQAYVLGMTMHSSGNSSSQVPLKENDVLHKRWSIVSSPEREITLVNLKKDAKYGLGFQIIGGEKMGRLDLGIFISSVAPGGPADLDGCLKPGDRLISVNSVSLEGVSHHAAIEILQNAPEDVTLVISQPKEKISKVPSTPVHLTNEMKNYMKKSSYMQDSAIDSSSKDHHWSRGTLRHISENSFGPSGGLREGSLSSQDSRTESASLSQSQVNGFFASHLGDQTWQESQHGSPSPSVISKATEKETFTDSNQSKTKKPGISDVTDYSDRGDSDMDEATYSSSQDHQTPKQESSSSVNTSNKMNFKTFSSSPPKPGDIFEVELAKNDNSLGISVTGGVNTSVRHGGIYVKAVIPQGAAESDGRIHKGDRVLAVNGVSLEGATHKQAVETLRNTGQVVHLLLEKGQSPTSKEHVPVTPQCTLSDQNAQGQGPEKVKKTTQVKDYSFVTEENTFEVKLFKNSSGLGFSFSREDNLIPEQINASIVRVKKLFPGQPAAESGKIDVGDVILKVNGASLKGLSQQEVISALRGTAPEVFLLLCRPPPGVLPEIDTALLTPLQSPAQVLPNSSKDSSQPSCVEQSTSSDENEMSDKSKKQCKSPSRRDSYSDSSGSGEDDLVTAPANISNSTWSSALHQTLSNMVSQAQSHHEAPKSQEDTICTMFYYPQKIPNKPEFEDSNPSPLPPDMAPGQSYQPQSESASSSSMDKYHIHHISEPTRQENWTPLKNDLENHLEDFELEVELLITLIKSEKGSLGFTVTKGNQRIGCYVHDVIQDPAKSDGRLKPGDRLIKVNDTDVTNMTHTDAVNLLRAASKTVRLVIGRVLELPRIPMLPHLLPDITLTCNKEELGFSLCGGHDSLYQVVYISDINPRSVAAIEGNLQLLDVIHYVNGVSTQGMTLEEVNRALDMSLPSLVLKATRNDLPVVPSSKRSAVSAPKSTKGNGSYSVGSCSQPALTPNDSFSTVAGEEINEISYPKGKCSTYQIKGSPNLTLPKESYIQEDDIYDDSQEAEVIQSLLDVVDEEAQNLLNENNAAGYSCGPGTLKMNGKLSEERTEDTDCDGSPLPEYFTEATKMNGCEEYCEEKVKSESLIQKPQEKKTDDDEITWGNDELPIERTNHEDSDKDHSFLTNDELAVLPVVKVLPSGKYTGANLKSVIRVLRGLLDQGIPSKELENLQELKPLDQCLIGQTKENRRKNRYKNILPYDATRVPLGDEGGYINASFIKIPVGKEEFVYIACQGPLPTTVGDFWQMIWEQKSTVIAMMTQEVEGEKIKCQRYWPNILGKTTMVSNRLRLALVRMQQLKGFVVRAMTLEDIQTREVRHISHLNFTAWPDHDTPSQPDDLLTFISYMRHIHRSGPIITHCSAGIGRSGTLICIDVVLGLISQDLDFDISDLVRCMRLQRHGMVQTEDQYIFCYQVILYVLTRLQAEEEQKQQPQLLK
# UniProt O00425: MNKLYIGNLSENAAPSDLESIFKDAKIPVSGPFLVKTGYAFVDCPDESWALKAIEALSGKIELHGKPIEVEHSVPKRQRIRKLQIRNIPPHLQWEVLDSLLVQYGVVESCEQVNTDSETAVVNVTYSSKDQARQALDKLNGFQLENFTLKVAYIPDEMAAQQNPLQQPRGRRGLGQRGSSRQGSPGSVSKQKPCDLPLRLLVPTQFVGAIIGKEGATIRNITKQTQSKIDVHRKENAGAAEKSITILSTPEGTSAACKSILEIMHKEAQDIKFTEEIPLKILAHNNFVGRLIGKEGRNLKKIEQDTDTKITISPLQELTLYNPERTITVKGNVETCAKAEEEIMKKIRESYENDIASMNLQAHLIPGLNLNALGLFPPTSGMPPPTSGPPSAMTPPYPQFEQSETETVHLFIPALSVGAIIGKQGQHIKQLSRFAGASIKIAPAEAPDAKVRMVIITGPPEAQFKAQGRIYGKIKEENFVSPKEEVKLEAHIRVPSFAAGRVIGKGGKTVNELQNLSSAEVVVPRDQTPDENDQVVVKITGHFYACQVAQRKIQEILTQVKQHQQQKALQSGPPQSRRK
# UniProt P14618: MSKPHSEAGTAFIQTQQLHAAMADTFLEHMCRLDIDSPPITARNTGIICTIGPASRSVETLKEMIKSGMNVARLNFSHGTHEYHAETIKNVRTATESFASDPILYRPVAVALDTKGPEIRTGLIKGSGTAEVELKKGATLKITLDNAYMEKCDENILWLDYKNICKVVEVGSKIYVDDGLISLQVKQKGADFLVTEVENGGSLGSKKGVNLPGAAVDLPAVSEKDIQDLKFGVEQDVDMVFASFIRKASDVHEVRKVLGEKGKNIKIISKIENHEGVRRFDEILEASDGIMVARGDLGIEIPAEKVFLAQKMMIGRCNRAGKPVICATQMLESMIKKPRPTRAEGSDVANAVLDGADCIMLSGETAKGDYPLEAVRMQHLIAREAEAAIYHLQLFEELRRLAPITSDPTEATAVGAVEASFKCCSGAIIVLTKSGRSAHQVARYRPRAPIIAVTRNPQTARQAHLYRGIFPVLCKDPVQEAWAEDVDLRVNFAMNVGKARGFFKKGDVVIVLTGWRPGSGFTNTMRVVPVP
# Molecular target: PTPN13, transiently overexpressed (UniProt Q12923)
# Test: affinity purification with mass spectrometry; CoIP with anti-PTPN13 antibody and IgG control from nuclear extracts of PLC/PRF/5 cells with transient overexpression vector or control vector, silver staining, mass spectrometry; also LM3-OE vs empty and Huh7, SK-hep1 and SMMC-7721 knockdown vs control pairs
row,binding,Substance
1,binds,"IGF2BP3, endogenous (from UniProt O00425 1-579)"
2,binds,"PKM, endogenous (from UniProt P14618 1-531) (enzyme)"

# These are yes or no findings as the source states them, for the method shown. In cells and extracts the contact can be indirect. These calls come from enrichment with a bait or labelling near it, and not all partners need be listed.
